System: primary AML samples
Assay: HLA class I ligandome analysis (W6/32 immunoaffinity purification, LC-MS/MS) of primary AML samples
Parameters: species or system human
Conditions: for Number of positive AMLs: HLA class I ligandome, AML patients (n=15), count for the HLA ligand (LiTAP) or, on protein lines, for the source protein (LiTAA); for Number of positive AMLs [rep. frequency]: representation frequency of the source protein (LiTAA) in AML patients (n=15)

Molecule | Number of positive AMLs | Number of positive AMLs [rep. frequency]
STK4 (protein, UniProt Q13043 1-487, looked up) Serine/threonine-protein …: METVQLRNPPRRQLKKLDEDSLTKQPEEVFDVLEKLGEGSYGSVYKAIHKETGQIVAIKQVPVESDLQEIIKEISIMQQCDSPHVVKYYGSYFKNTDLWIVMEYCGAGSVSDIIRLRNKTLTEDEIATILQSTLKGLEYLHFMRKIHRDIKAGNILLNTEGHAKLADFGVAGQLTDTMAKRNTVIGTPFWMAPEVIQEIGYNCVADIWSLGITAIEMAEGKPPYADIHPMRAIFMIPTNPPPTFRKPELWSDNFTDFVKQCLVKSPEQRATATQLLQHPFVRSAKGVSILRDLINEAMDVKLKRQESQQREVDQDDEENSEEDEMDSGTMVRAVGDEMGTVRVASTMTDGANTMIEHDDTLPSQLGTMVINAEDEEEEGTMKRRDETMQPAKPSFLEYFEQKEKENQINSFGKSVPGPLKNSSDWKIPQDGDYEFLKSWTVEDLQKRLLALDPMMEQEIEEIRQKYQSKRQPILDAIEAKKRRQQNF | 4 | [26.7%]
TMEM126B (protein, UniProt Q8IUX1 2-230, looked up) Complex I assembly factor …: VVFGYEAGTKPRDSGVVPVGTEEAPKVFKMAASMHGQPSPSLEDAKLRRPMVIEIIEKNFDYLRKEMTQNIYQMATFGTTAGFSGIFSNFLFRRCFKVKHDALKTYASLATLPFLSTVVTDKLFVIDALYSDNISKENCVFRSSLIGIVCGVFYPSSLAFTKNGRLATKYHTVPLPPKGRVLIHWMTLCQTQMKLMAIPLVFQIMFGILNGLYHYAVFEETLEKTIHEE | 4 | [26.7%]
FAM46A (protein, UniProt Q96IP4 1-442, looked up) Terminal …: MAEGEGYFAMSEDELACSPYIPLGGDFGGGDFGGGDFGGGDFGGGGSFGGHCLDYCESPTAHCNVLNWEQVQRLDGILSETIPIHGRGNFPTLELQPSLIVKVVRRRLAEKRIGVRDVRLNGSAASHVLHQDSGLGYKDLDLIFCADLRGEGEFQTVKDVVLDCLLDFLPEGVNKEKITPLTLKEAYVQKMVKVCNDSDRWSLISLSNNSGKNVELKFVDSLRRQFEFSVDSFQIKLDSLLLFYECSENPMTETFHPTIIGESVYGDFQEAFDHLCNKIIATRNPEEIRGGGLLKYCNLLVRGFRPASDEIKTLQRYMCSRFFIDFSDIGEQQRKLESYLQNHFVGLEDRKYEYLMTLHGVVNESTVCLMGHERRQTLNLITMLAIRVLADQNVIPNVANVTCYYQPAPYVADANFSNYYIAQVQPVFTCQQQTYSTWLPCN | 4 | [26.7%]
UCK2 (protein, UniProt Q9BZX2 2-261, looked up) Uridine-cytidine kinase 2: AGDSEQTLQNHQQPNGGEPFLIGVSGGTASGKSSVCAKIVQLLGQNEVDYRQKQVVILSQDSFYRVLTSEQKAKALKGQFNFDHPDAFDNELILKTLKEITEGKTVQIPVYDFVSHSRKEETVTVYPADVVLFEGILAFYSQEVRDLFQMKLFVDTDADTRLSRRVLRDISERGRDLEQILSQYITFVKPAFEEFCLPTKKYADVIIPRGADNLVAINLIVQHIQDILNGGPSKRQTNGCLNGYTPSRKRQASESSSRPH | 4 | [26.7%]
PHPT1 (protein, UniProt Q9NRX4 2-125, looked up) 14 kDa phosphohistidine …: AVADLALIPDVDIDSDGVFKYVLIRVHSAPRSGAPAAESKEIVRGYKWAEYHADIYDKVSGDMQKQGCDCECLGGGRISHQSQDKKIHVYGYSMAYGPAQHAISTEKIKAKYPDYEVTWANDGY | 4 | [26.7%]
CSF3R (protein, UniProt Q99062 25-836, looked up) Granulocyte …: ECGHISVSAPIVHLGDPITASCIIKQNCSHLDPEPQILWRLGAELQPGGRQQRLSDGTQESIITLPHLNHTQAFLSCCLNWGNSLQILDQVELRAGYPPAIPHNLSCLMNLTTSSLICQWEPGPETHLPTSFTLKSFKSRGNCQTQGDSILDCVPKDGQSHCCIPRKHLLLYQNMGIWVQAENALGTSMSPQLCLDPMDVVKLEPPMLRTMDPSPEAAPPQAGCLQLCWEPWQPGLHINQKCELRHKPQRGEASWALVGPLPLEALQYELCGLLPATAYTLQIRCIRWPLPGHWSDWSPSLELRTTERAPTVRLDTWWRQRQLDPRTVQLFWKPVPLEEDSGRIQGYVVSWRPSGQAGAILPLCNTTELSCTFHLPSEAQEVALVAYNSAGTSRPTPVVFSESRGPALTRLHAMARDPHSLWVGWEPPNPWPQGYVIEWGLGPPSASNSNKTWRMEQNGRATGFLLKENIRPFQLYEIIVTPLYQDTMGPSQHVYAYSQEMAPSHAPELHLKHIGKTWAQLEWVPEPPELGKSPLTHYTIFWTNAQNQSFSAILNASSRGFVLHGLEPASLYHIHLMAASQAGATNSTVLTLMTLTPEGSELHIILGLFGLLLLLTCLCGTAWLCCSPNRKNPLWPSVPDPAHSSLGSWVPTIMEEDAFQLPGLGTPPITKLTVLEEDEKKPVPWESHNSSETCGLPTLVQTYVLQGDPRAVSTQPQSQSGTSDQVLYGQLLGSPTSPGPGHYLRCDSTQPLLAGLTPSPKSYENLWFQASPLGTLVTPAPSQEDDCVFGPLLNFPLLQGIRVHGMEALGSF | 4 | [26.7%]
GMNN (protein, UniProt O75496 1-209, looked up) Geminin: MNPSMKQKQEEIKENIKNSSVPRRTLKMIQPSASGSLVGRENELSAGLSKRKHRNDHLTSTTSSPGVIVPESSENKNLGGVTQESFDLMIKENPSSQYWKEVAEKRRKALYEALKENEKLHKEIEQKDNEIARLKKENKELAEVAEHVQYMAELIERLNGEPLDNFESLDNQEFDSEEETVEDSLVEDSEIGTCAEGTVSSSTDAKPCI | 6 | [40.0%]
THOC7 (protein, UniProt Q6I9Y2 2-204, looked up) THO complex subunit 7: GAVTDDEVIRKRLLIDGDGAGDDRRINLLVKSFIKWCNSGSQEEGYSQYQRMLSTLSQCEFSMGKTLLVYDMNLREMENYEKIYKEIECSIAGAHEKIAECKKQILQAKRIRKNRQEYDALAKVIQHHPDRHETLKELEALGKELEHLSHIKESVEDKLELRRKQFHVLLSTIHELQQTLENDEKLSEVEEAQEASMETDPKP | 4 | [26.7%]
KIF15 (protein, UniProt Q9NS87 1-1388, looked up) Kinesin-like protein KIF15: MAPGCKTELRSVTNGQSNQPSNEGDAIKVFVRIRPPAERSGSADGEQNLCLSVLSSTSLRLHSNPEPKTFTFDHVADVDTTQESVFATVAKSIVESCMSGYNGTIFAYGQTGSGKTFTMMGPSESDNFSHNLRGVIPRSFEYLFSLIDREKEKAGAGKSFLCKCSFIEIYNEQIYDLLDSASAGLYLREHIKKGVFVVGAVEQVVTSAAEAYQVLSGGWRNRRVASTSMNRESSRSHAVFTITIESMEKSNEIVNIRTSLLNLVDLAGSERQKDTHAEGMRLKEAGNINRSLSCLGQVITALVDVGNGKQRHVCYRDSKLTFLLRDSLGGNAKTAIIANVHPGSRCFGETLSTLNFAQRAKLIKNKAVVNEDTQGNVSQLQAEVKRLKEQLAELASGQTPPESFLTRDKKKTNYMEYFQEAMLFFKKSEQEKKSLIEKVTQLEDLTLKKEKFIQSNKMIVKFREDQIIRLEKLHKESRGGFLPEEQDRLLSELRNEIQTLREQIEHHPRVAKYAMENHSLREENRRLRLLEPVKRAQEMDAQTIAKLEKAFSEISGMEKSDKNQQGFSPKAQKEPCLFANTEKLKAQLLQIQTELNNSKQEYEEFKELTRKRQLELESELQSLQKANLNLENLLEATKACKRQEVSQLNKIHAETLKIITTPTKAYQLHSRPVPKLSPEMGSFGSLYTQNSSILDNDILNEPVPPEMNEQAFEAISEELRTVQEQMSALQAKLDEEEHKNLKLQQHVDKLEHHSTQMQELFSSERIDWTKQQEELLSQLNVLEKQLQETQTKNDFLKSEVHDLRVVLHSADKELSSVKLEYSSFKTNQEKEFNKLSERHMHVQLQLDNLRLENEKLLESKACLQDSYDNLQEIMKFEIDQLSRNLQNFKKENETLKSDLNNLMELLEAEKERNNKLSLQFEEDKENSSKEILKVLEAVRQEKQKETAKCEQQMAKVQKLEESLLATEKVISSLEKSRDSDKKVVADLMNQIQELRTSVCEKTETIDTLKQELKDINCKYNSALVDREESRVLIKKQEVDILDLKETLRLRILSEDIERDMLCEDLAHATEQLNMLTEASKKHSGLLQSAQEELTKKEALIQELQHKLNQKKEEVEQKKNEYNFKMRQLEHVMDSAAEDPQSPKTPPHFQTHLAKLLETQEQEIEDGRASKTSLEHLVTKLNEDREVKNAEILRMKEQLREMENLRLESQQLIEKNWLLQGQLDDIKRQKENSDQNHPDNQQLKNEQEESIKERLAKSKIVEEMLKMKADLEEVQSALYNKEMECLRMTDEVERTQTLESKAFQEKEQLRSKLEEMYEERERTSQEMEMLRKQVECLAEENGKLVGHQNLHQKIQYVVRLKKENVRLAEETEKLRAENVFLKEKKRSES | 4 | [26.7%]
NOC4L (protein, UniProt Q9BVI4 1-516, looked up) Nucleolar complex protein 4 …: MEREPGAAGVRRALGRRLEAVLASRSEANAVFDILAVLQSEDQEEIQEAVRTCSRLFGALLERGELFVGQLPSEEMVMTGSQGATRKYKVWMRHRYHSCCNRLGELLGHPSFQVKELALSALLKFVQLEGAHPLEKSKWEGNYLFPRELFKLVVGGLLSPEEDQSLLLSQFREYLDYDDTRYHTMQAAVDAVARVTGQHPEVPPAFWNNAFTLLSAVSLPRREPTVSSFYVKRAELWDTWKVAHLKEHRRVFQAMWLSFLKHKLPLSLYKKVLLIVHDAILPQLAQPTLMIDFLTRACDLGGALSLLALNGLFILIHKHNLEYPDFYRKLYGLLDPSVFHVKYRARFFHLADLFLSSSHLPAYLVAAFAKRLARLALTAPPEALLMVLPFICNLLRRHPACRVLVHRPHGPELDADPYDPGEEDPAQSRALESSLWELQALQRHYHPEVSKAASVINQALSMPEVSIAPLLELTAYEIFERDLKKKGPEPVPLEFIPAQGLLGRPGELCAQHFTLS | 4 | [26.7%]
MFAP1 (protein, UniProt P55081 2-439, looked up) Microfibrillar-associated …: SVPSALMKQPPIQSTAGAVPVRNEKGEISMEKVKVKRYVSGKRPDYAPMESSDEEDEEFQFIKKAKEQEAEPEEQEEDSSSDPRLRRLQNRISEDVEERLARHRKIVEPEVVGESDSEVEGDAWRMEREDSSEEEEEEIDDEEIERRRGMMRQRAQERKNEEMEVMEVEDEGRSGEESESESEYEEYTDSEDEMEPRLKPVFIRKKDRVTVQEREAEALKQKELEQEAKRMAEERRKYTLKIVEEETKKELEENKRSLAALDALNTDDENDEEEYEAWKVRELKRIKRDREDREALEKEKAEIERMRNLTEEERRAELRANGKVITNKAVKGKYKFLQKYYHRGAFFMDEDEEVYKRDFSAPTLEDHFNKTILPKVMQVKNFGRSGRTKYTHLVDQDTTSFDSAWGQESAQNTKFFKQKAAGVRDVFERPSAKKRKTT | 4 | [26.7%]
